No constants are given. Whether binding was seen depends on the method and setting. Binding seen in cells or lysates may run through a third protein. A yes stands for co-enrichment or nearness to the bait. Other partners may have been found. Tags and fused reporters may be left off the sequences shown.
Target: T1, Flag-tagged CAD (caspase-activated DNase) (human) (UniProt O76075)
T1 sequence: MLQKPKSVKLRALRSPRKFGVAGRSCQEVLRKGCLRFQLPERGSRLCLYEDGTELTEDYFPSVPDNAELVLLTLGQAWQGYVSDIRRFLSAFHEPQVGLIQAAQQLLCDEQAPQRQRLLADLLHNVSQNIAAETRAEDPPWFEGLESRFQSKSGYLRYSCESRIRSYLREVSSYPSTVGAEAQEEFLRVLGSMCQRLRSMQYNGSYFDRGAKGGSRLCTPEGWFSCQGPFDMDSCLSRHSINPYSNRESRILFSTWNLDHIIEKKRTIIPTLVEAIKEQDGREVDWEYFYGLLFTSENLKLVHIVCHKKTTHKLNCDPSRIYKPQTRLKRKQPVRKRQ
Assay: affinity purification with mass spectrometry; Flag-CAD stably overexpressed in HCT116; lysate on anti-Flag magnetic beads at 4 °C overnight; elution with 0.1 M glycine HCl pH 3.0; SDS-PAGE, silver staining, in-gel tryptic digestion, LC-MS/MS

Protein sequences, listed by entry. Tags and fused reporters are not part of them.
UniProt Q86WV6: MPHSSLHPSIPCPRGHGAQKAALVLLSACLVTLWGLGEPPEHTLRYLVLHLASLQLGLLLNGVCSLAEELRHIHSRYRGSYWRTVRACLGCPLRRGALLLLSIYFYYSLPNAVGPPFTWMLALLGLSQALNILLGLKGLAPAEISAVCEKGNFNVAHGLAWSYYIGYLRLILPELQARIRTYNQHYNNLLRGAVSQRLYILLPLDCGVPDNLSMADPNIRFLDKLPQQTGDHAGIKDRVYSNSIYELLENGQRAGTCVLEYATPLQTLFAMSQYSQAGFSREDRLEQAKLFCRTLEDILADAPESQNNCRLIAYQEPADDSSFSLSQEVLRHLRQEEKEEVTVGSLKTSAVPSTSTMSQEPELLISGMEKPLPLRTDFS

endogenous STING (from UniProt Q86WV6 1-379)
binding: binds
